Laboratory results from US11833137B2, “Substituted chromenones, IRE1 inhibitors, and methods of using same” (The Wistar Institute, priority 2018, dated 2023).

Test: Fluorescence turn-on of caged D-F07 derivatives by UV, hydrogen peroxide or thiols
Assay type: physicochemical

COc1cc2c3c(c(=O)oc2c(C2OCCCO2)c1OCc1ccc(B2OC(C)(C)C(C)(C)O2)cc1)CN(C)CC3 [BC-D-F07a, 7-(1,3-dioxan-2-yl)-9-methoxy-3-methyl-8-((4-(4,4,5,5-tetramethyl-1,3,2-dioxaborolan-2-yl)benzyl)oxy)-1,2,3,4-tetrahydro-5H-chromeno[3,4-c]pyridin-5-one]
increase in fluorescence intensity with hydrogen peroxide (200 μM hydrogen peroxide, 1 h, room temperature): approximately 8 fold

COc1cc2c3c(c(=O)oc2c(C2OCCCO2)c1B1OC(C)(C)C(C)(C)O1)CN(C)CC3 [BC-D-F07b, 7-(1,3-dioxan-2-yl)-9-methoxy-3-methyl-8-(4,4,5,5-tetramethyl-1,3,2-dioxaborolan-2-yl)-3,4-dihydro-1H-chromeno[3,4-c]pyridin-5(2H)-one]
hydrogen peroxide dose-dependent fluorescence enhancement (oxidation to D-F07) (0 to 2 mM hydrogen peroxide, 37° C., 1 h): higher concentrations of hydrogen peroxide and higher incubation temperature (37° C.) were required

COc1cc2c3c(c(=O)oc2c(C2OCCCO2)c1OS(=O)(=O)c1ccc([N+](=O)[O-])cc1[N+](=O)[O-])CN(C)CC3 [TC-D-F07, 7-(1,3-dioxan-2-yl)-9-methoxy-3-methyl-5-oxo-1,3,4,5-tetrahydro-2H-chromeno[3,4-c]pyridin-8-yl 2,4-dinitrobenzenesulfonate]
fluorescence response to GSH (2.5 μM, 0 to 1 mM GSH, room temperature, 10 min): Dose-dependent increase of fluorescence | fluorescence response to methionine or glycine (2.5 μM, room temperature, 10 min): No change in fluorescence

COc1cc2c3c(c(=O)oc2c(C2OCCCO2)c1OC(C)c1ccc(C(=O)OCC[Si](C)(C)C)cc1[N+](=O)[O-])CN(C)CC3 [PC-D-F07, 2-(trimethylsilyl)ethyl 4-(1-((7-(1,3-dioxan-2-yl)-9-methoxy-3-methyl-5-oxo-1,3,4,5-tetrahydro-2H-chromeno[3,4-c]pyridin-8-yl)oxy)ethyl)-3-nitrobenzoate]
increase in fluorescence intensity upon UV irradiation (conversion to D-F07) (10 μM in DMSO/PBS 1:99, UV 0.55 W/cm^2): approximately 75 fold
